This is an account of results in publication PMC9452538 (Communications Biology, 2022).

HELM strings list residues between dots; [ac] is acetyl, [am] amide, other brackets name non-standard units. Ends that are not written are not given here.

The series is described as follows: peptide made by a vendor. Conditions: whole synthesis.
As for AKKLCRILKKLCRI-NH2, the “purity (crude or final not stated)” value is given as 96.36%. Under LAKLCRILKKLCRI-NH2 stands 99.65%; under LKALCRILKKLCRI-NH2, 95.67%. For the substance LKKACRILKKLCRI-NH2, the “purity (crude or final not stated)” value is reported as 96.46%. The result for LKKLCRI-NH2 reads 96.69%; that for LKKLCRIAKKLCRI-NH2, 97.84%. With LKKLCRILAKLCRI-NH2, the “purity (crude or final not stated)” value was determined as 96.68%.

Regarding LKKLCRILKALCRI-NH2, the “purity (crude or final not stated)” value is reported as 95.14%. The result for “LKKLCRILKKACRI-NH2 (cysteine pairing not given here)” reads 96.7%; that for LKKLCRILKKLCAI-NH2, 96.15%; that for “PEPTIDE1{L.K.K.L.C.R.I.L.K.K.L.A.R.I.[am]}$$$$V2.0”, 96.66%.
